Some of the results follow. Most values lie at the level of the controls, where differences are scatter.
compound: CN[C@@H]1C[C@H]2O[C@@](C)([C@@H]1OC)n1c3ccccc3c3c4c(c5c6ccccc6n2c5c31)C(=O)NC4 [staurosporine]; experiment: log2 fold change of tryptic peptide abundance, ligand vs vehicle (limited proteolysis) (log2 ratio); higher = more trypsin-susceptible (destabilized); conditions: ligand concentration: 20 uM; sample: K562 cleared lysate; digestion: 4 min, 22 C (HT-PELSA RT4min, Orbitrap Astral)

The chains behind the UniProt entries cited, without tags or fusion partners. Where a name states a change or a piece, a line headed by the entry shows the natural chain unless it says otherwise.
UniProt P17020: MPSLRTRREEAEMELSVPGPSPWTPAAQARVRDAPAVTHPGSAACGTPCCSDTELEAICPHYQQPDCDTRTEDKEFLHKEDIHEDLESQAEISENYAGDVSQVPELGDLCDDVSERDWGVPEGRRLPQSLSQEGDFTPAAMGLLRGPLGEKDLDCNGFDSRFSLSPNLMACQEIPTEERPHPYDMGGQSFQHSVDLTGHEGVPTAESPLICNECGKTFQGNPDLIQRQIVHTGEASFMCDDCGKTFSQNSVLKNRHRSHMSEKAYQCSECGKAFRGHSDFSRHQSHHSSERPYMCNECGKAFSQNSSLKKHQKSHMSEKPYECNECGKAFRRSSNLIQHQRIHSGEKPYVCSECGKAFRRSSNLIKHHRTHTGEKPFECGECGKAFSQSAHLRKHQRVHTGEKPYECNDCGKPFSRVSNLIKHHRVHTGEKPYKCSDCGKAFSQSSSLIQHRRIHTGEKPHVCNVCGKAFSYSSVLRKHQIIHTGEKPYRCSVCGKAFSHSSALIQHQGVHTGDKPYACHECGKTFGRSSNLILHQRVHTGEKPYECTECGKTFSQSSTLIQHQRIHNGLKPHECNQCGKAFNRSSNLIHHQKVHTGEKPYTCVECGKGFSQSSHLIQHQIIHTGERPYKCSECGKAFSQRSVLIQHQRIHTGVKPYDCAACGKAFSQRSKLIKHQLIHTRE
UniProt P22612, whole entry, looked up: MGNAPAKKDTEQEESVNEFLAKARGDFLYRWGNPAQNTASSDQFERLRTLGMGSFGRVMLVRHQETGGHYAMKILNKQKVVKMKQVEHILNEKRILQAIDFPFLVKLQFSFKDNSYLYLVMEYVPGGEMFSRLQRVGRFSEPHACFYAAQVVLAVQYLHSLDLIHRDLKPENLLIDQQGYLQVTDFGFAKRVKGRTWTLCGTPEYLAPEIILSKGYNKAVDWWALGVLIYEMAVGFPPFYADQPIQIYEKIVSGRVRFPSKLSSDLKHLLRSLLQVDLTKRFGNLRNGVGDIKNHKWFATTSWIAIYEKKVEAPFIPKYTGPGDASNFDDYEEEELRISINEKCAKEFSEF
UniProt P21675, whole entry: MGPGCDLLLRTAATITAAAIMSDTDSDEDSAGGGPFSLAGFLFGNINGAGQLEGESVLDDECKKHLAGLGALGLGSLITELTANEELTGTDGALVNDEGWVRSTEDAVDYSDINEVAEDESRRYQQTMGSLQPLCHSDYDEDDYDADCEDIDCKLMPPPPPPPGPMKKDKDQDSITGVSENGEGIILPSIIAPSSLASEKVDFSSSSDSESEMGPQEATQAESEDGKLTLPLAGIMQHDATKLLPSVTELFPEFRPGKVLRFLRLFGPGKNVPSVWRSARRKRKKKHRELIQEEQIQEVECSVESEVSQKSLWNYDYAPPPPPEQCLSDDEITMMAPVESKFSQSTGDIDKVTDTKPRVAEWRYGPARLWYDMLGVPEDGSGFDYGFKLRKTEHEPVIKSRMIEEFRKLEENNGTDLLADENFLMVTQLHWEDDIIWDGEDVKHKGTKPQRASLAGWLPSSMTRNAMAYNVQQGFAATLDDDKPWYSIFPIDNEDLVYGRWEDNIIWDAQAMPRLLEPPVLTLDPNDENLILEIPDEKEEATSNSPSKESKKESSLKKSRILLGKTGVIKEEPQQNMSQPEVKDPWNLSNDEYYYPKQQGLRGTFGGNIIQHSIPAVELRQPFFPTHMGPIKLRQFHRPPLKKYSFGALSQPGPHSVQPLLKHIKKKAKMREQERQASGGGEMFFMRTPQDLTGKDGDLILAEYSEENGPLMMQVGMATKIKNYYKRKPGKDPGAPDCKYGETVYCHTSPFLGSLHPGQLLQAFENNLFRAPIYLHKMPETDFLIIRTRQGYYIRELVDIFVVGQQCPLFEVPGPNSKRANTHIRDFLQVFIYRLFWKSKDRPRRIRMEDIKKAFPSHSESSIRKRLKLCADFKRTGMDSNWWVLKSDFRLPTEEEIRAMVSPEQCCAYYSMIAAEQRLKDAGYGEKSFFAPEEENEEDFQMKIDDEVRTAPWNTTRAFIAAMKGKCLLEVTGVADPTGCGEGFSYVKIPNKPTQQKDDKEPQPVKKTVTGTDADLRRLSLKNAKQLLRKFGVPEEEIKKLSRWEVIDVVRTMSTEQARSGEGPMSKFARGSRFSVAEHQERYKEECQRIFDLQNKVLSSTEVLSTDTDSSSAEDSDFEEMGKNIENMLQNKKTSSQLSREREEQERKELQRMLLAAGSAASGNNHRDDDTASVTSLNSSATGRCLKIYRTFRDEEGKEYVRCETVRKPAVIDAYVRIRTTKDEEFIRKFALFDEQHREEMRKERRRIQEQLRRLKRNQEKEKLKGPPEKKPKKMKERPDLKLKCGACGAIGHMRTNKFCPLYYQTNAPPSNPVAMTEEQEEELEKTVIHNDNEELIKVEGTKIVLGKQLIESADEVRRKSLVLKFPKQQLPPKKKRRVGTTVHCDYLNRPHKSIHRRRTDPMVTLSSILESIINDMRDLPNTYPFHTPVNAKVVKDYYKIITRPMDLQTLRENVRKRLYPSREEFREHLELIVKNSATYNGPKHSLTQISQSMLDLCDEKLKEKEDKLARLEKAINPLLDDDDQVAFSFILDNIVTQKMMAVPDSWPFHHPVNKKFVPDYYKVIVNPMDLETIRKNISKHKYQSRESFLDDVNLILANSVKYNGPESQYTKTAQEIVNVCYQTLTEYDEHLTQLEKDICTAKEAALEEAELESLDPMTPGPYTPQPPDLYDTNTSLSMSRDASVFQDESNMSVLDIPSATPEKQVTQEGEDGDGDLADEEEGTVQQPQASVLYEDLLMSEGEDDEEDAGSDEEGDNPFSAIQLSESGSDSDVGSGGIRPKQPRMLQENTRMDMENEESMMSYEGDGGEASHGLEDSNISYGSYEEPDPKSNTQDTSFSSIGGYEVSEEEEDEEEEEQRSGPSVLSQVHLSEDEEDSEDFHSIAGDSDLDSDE
UniProt P14649: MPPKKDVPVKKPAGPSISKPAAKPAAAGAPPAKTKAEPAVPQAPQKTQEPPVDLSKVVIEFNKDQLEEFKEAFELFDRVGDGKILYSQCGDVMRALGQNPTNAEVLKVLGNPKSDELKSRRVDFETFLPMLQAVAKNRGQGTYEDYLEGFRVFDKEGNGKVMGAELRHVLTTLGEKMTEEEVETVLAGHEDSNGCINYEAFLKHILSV
UniProt P21291: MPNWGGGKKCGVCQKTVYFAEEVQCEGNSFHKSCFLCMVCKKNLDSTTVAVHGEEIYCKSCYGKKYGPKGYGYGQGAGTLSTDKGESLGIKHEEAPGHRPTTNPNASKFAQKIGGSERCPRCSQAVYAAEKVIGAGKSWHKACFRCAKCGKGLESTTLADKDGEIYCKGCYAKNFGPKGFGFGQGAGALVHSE
UniProt P27987: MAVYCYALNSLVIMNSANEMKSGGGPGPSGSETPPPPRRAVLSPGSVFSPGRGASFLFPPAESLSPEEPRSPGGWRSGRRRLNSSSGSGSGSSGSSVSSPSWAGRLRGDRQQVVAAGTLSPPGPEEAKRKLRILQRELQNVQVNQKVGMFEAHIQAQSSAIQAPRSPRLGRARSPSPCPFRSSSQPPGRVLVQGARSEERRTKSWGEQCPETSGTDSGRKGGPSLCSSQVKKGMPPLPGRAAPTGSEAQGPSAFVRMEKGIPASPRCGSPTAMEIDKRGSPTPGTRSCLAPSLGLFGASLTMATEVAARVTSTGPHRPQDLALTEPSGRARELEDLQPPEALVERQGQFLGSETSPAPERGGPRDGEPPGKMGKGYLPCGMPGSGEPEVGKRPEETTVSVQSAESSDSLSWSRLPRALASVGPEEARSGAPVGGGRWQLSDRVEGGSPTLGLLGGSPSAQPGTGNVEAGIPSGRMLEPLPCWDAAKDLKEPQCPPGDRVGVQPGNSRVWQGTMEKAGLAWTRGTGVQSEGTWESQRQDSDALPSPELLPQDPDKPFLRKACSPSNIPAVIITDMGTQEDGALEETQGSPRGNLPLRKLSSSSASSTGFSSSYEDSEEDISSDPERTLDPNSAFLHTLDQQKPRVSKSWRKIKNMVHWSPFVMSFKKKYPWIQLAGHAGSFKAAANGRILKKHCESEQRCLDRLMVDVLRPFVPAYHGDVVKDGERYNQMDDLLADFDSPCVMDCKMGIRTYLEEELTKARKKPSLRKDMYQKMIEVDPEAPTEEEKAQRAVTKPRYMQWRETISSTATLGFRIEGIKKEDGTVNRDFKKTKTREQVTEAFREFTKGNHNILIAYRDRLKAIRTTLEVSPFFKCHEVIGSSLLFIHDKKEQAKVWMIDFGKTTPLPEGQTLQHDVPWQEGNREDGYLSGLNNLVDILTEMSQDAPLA
UniProt P20618: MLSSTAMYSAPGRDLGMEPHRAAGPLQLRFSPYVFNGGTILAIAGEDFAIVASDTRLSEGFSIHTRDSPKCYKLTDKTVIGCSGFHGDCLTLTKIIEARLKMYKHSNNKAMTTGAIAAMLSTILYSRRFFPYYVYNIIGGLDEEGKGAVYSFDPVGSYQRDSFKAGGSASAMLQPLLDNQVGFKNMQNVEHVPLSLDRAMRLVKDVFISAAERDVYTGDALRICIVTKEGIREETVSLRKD
UniProt P26447: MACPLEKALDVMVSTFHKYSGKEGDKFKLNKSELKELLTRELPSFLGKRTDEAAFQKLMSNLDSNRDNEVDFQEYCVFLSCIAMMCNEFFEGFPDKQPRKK
UniProt P14923: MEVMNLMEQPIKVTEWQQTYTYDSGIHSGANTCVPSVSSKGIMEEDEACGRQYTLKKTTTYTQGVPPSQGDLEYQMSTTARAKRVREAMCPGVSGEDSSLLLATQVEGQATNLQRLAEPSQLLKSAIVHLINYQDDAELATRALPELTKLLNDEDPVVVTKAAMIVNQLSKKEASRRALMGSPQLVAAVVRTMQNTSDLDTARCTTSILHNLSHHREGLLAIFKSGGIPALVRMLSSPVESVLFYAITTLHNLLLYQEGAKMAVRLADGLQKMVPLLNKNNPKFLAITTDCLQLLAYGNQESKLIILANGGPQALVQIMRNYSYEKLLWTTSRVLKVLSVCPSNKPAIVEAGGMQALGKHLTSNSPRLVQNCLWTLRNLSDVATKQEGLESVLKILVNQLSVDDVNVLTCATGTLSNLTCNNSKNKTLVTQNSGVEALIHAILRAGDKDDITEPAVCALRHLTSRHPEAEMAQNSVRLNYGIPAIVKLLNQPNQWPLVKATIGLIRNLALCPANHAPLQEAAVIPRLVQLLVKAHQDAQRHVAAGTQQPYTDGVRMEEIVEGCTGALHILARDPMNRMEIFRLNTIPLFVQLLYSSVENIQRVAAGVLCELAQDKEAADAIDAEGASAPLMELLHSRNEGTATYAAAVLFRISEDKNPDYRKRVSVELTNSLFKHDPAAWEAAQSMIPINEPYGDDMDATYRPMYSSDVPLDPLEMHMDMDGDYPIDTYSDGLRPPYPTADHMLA
UniProt P27361, whole entry: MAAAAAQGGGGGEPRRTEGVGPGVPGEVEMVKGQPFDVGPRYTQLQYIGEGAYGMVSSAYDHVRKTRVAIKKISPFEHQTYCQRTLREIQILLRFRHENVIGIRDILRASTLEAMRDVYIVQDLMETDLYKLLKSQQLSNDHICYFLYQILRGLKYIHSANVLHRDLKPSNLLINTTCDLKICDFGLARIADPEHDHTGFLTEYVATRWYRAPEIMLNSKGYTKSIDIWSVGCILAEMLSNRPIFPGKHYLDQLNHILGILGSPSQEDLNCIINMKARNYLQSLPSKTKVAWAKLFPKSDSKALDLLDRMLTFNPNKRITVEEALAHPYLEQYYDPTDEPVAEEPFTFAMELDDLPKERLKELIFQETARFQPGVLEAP
UniProt P17480: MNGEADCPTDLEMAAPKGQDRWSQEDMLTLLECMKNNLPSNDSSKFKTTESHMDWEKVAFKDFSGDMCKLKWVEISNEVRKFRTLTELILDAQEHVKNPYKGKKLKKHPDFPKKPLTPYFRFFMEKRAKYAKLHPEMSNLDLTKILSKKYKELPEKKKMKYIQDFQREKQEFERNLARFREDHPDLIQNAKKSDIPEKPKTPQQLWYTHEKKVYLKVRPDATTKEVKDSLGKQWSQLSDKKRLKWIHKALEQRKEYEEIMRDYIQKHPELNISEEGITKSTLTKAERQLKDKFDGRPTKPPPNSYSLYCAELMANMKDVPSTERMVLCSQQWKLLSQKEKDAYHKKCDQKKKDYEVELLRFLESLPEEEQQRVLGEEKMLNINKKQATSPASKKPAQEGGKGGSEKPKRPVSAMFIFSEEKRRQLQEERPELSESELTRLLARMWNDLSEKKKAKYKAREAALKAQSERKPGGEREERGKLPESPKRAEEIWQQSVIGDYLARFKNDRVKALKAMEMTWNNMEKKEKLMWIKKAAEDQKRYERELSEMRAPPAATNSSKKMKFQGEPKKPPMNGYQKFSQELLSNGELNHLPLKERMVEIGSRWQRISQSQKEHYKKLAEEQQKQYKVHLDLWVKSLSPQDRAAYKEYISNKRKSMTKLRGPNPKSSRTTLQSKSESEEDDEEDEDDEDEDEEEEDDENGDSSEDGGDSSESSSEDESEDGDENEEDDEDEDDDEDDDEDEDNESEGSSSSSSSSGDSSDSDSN

Target	log2 fold change
UniProt P18615 (peptide sequence: GAFSPFGNIIDLSMDPPR, peptide start residue: 278)	-0.148
ZNF16 (peptide sequence: TFSQNSVLK, peptide start residue: 245) (UniProt P17020)	-0.263
CAPN2 (peptide sequence: MPCQLHQVIVAR, peptide start residue: 638) (UniProt P17655)	-0.303
PRKACG (peptide sequence: KVEAPFIPK, peptide start residue: 310) (UniProt P22612)	0.00361
POLR2C (peptide sequence: PYANQPTVR, peptide start residue: 2) (UniProt P19387)	-0.185
TAF1 (peptide sequence: TAPWNTTR, peptide start residue: 929) (UniProt P21675)	0.196
NME1 (peptide sequence: VMLGETNPADSKPGTIR, peptide start residue: 89) (UniProt P15531)	-0.112
MYL6B (peptide sequence: NRGQGTYEDYLEGFR, peptide start residue: 137) (UniProt P14649)	-0.457
ATF7 (peptide sequence: KAADEDEKK, peptide start residue: 80) (UniProt P17544)	0.583
MPST (peptide sequence: SQPAPAEFR, peptide start residue: 147) (UniProt P25325)	0.408
CSRP1 (peptide sequence: HEEAPGHRPTTNPNASK, peptide start residue: 92) (UniProt P21291)	-0.0867
IMPDH1 (peptide sequence: DIDFLAEKDHTTLLSEVMTPR, peptide start residue: 162) (UniProt P20839)	0.306
JUNB (peptide sequence: VMTHVSNGCQLLLGVK, peptide start residue: 328) (UniProt P17275)	-0.879
RPS2 (peptide sequence: IMPVQKQTR, peptide start residue: 109) (UniProt P15880)	0.478
ATF1 (peptide sequence: DLSSEDTR, peptide start residue: 70) (UniProt P18846)	-0.111
STMN1 (peptide sequence: NKESKDPADETEAD, peptide start residue: 136) (UniProt P16949)	-0.184
COMT (peptide sequence: LITIEINPDCAAITQR, peptide start residue: 136) (UniProt P21964)	-0.199
ITPKB (peptide sequence: VWMIDFGK, peptide start residue: 634) (UniProt P27987)	-0.126
ZNF22 (peptide sequence: SFFQSSNLIQHR, peptide start residue: 91) (UniProt P17026)	-0.114
FBL (peptide sequence: NVMVEPHRHEGVFICR, peptide start residue: 85) (UniProt P22087)	-0.115

3 records picked at random from the list so far, as already listed:
Target	log2 fold change
ITPKB (peptide sequence: VWMIDFGK, peptide start residue: 634) (UniProt P27987)	-0.126
ATF7 (peptide sequence: KAADEDEKK, peptide start residue: 80) (UniProt P17544)	0.583
ZNF16 (peptide sequence: TFSQNSVLK, peptide start residue: 245) (UniProt P17020)	-0.263

(next part)

Target	log2 fold change
GSTM3 (peptide sequence: MAQWGNKPVC, peptide start residue: 216) (UniProt P21266)	-0.059
PSMB1 (peptide sequence: DVFISAAERDVYTGDALR, peptide start residue: 205) (UniProt P20618)	-0.141
PLCG1 (peptide sequence: NMLSQVNYR, peptide start residue: 179) (UniProt P19174)	0.19
S100A4 (peptide sequence: ALDVMVSTFHK, peptide start residue: 8) (UniProt P26447)	-0.412
JUP (peptide sequence: ISEDKNPDYR, peptide start residue: 652) (UniProt P14923)	0.592
UniProt P27361 (peptide sequence: ISPFEHQTYCQR, peptide start residue: 56)	-0.486
MCM3 (peptide sequence: AILCLLLGGVER, peptide start residue: 316) (UniProt P25205)	-0.158
HK1 (peptide sequence: FNTSDVSAIEK, peptide start residue: 334) (UniProt P19367)	-0.378
UniProt P16383 (peptide sequence: YLIIALLNATPGPDVVKK, peptide start residue: 681)	0.321
UBTF (peptide sequence: TLTELILDAQEHVKNPYKGK, peptide start residue: 84) (UniProt P17480)	-0.403
GLUL (peptide sequence: AYDPKGGLDNAR, peptide start residue: 287) (UniProt P15104)	0.432
CBL (peptide sequence: VPVSAPSSSDPWTGR, peptide start residue: 598) (UniProt P22681)	-0.578
VAV1 (peptide sequence: YHLLLQELVK, peptide start residue: 336) (UniProt P15498)	0.191
UniProt P18859 (peptide sequence: FEDPKFEVIEKPQA, peptide start residue: 95)	-0.059
DCK (peptide sequence: STFVNILK, peptide start residue: 35) (UniProt P27707)	-0.187
YWHAQ (peptide sequence: VISSIEQKTDTSDKK, peptide start residue: 61) (UniProt P27348)	0.653
WARS (peptide sequence: EVTDEIVK, peptide start residue: 451) (UniProt P23381)	-0.369
IGFBP4 (peptide sequence: GELDCHQLADSFRE, peptide start residue: 245) (UniProt P22692)	0.152
ATP6V1C1 (peptide sequence: KNAGSLLTR, peptide start residue: 156) (UniProt P21283)	0.104
RPL7 (peptide sequence: HYHKEYR, peptide start residue: 56) (UniProt P18124)	0.327
